Data: PubChem BioAssay (NCATS)
This list was built around the results that the source calls inconclusive (neither active nor inactive); the mix of calls is not that of the screen. For some of these results: Potencies of inconclusive entries are doubtful fits and often do not repeat. Activity calls are given as the source filed them. Calls come from the whole dose curve; as a rule, active = well fitted curve in the direction sought with a large enough effect; inconclusive = small, poorly fitted or top-dose-only effect, or another doubt; inactive = no such curve, though single readings can be large; an effect the other way counts as inactive or inconclusive.

What was measured:
[1] = Quantitative highthroughput screen to assess conditional lethalithy of NOMO1 cells grown in RPMI1640 with untreated serum (RPMI+s) (AID 1963876); conditions: NOMO1 AML cells in RPMI+serum, CellTiter-Glo viability, 48 h; viability: at 45.8 µM (top of the series); note: nearly all actives have a fitted effect of over 35% in size
How it was run: (§1)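 Each medium arm—HPLM with 10% dialyzed FBS, or RPMI1640 with 5 mM glucose and 10% untreated or dialyzed FBS—was screened against an 11-point, 3-fold compound titration for 48 h at 37 °C, with CellTiter-Glo luminescence as endpoint.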

[2] = Quantitative highthroughput screen to assess conditional lethalithy of NOMO1 cells grown in RPMI1640 with dialyzed fetal bovine serum (RPMI+ds) (AID 1963877); note: nearly all actives have a fitted effect of over 30% in size
How it was run: as §1

[3] = Quantitative highthroughput screen to assess conditional lethalithy of NOMO1 cells grown in Human Plasma-Like Medium with dialyzed fetal bovine serum (HPLM+ds) (AID 1963878); conditions: NOMO1 AML cells in HPLM+ds, CellTiter-Glo viability, 48 h; viability: at 45.8 µM (top of the series); note: nearly all actives have a fitted effect of over 35% in size
How it was run: as §1

[4] = Quantitative highthroughput screen to assess conditional lethalithy of P12 Ichikawa cells grown in Human Plasma-Like Medium with dialyzed fetal bovine serum (HPLM+ds) (AID 1963879); conditions: Potency: viability; note: nearly all actives have a fitted effect of over 35% in size
How it was run: as §1

[5] = Quantitative highthroughput screen to assess conditional lethalithy of P12 Ichikawa cells grown in RPMI1640 with dialyzed fetal bovine serum (RPMI+ds) (AID 1963880); conditions: Potency: P12-Ichikawa viability; note: nearly all actives have a fitted effect of over 35% in size
How it was run: as §1

[6] = Quantitative highthroughput screen to assess conditional lethalithy of P12 Ichikawa cells grown in RPMI1640 with untreated serum (RPMI+s) (AID 1963881); conditions: Potency: viability; note: nearly all actives have a fitted effect of over 35% in size
How it was run: as §1

[7] = Quantitative highthroughput screen to assess conditional lethalithy of SEM cells grown in Human Plasma-Like Medium with dialyzed fetal bovine serum (HPLM+ds) (AID 1963882); note: nearly all actives have a fitted effect of over 35% in size
How it was run: as §1

[8] = Quantitative highthroughput screen to assess conditional lethalithy of SEM cells grown in RPMI1640 with dialyzed fetal bovine serum (RPMI+ds) (AID 1963884); conditions: SEM B-ALL cells, RPMI+dialyzed FBS, CellTiter-Glo viability, 48 h; viability: at 45.8 µM (top of the series); note: nearly all actives have a fitted effect of over 35% in size
How it was run: as §1

[9] = Quantitative highthroughput screen to assess conditional lethalithy of SEM cells grown in RPMI1640 with unreated serum (RPMI+s) (AID 1963883); conditions: SEM B-ALL cells, CellTiter-Glo viability, 48 h; viability: at 45.8 µM (top of the series); note: nearly all actives have a fitted effect of over 35% in size
How it was run: as §1

[10] = Cellular viability qHTS for adrenocortical cancer (ACC) cell line NCI-H295R (AID 1963990); conditions: CellTiter-Glo ATP luminescence, 48 h; series mostly up to 46.1 µM; note: nearly all actives have a fitted effect of over 60% in size
How it was run: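 Adrenocortical carcinoma cells, suspended at 300 000 cells/mL in serum-free DMEM plus ITS, rested overnight before pin transfer of compound. After two days' incubation, ATP-dependent luminescence was recorded and curve-fitted.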

[11] = Viability qHTS for spleen associated tyrosine kinase inhibitor (SYKi) drug resistant MV4-11 cells (AID 1963824); note: nearly all actives have a fitted effect of over 35% in size
How it was run: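 SYK inhibitor-resistant MV4-11 AML cells, 500 per well, added to predispensed compounds and incubated 72 hr at 37 C, 5% CO2. Viability measured by CellTiter-Glo luminescence after 10 min at room temperature.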

[12] = Cellular viability qHTS for adrenocortical cancer (ACC) cell line SW-13 (AID 1963989); conditions: SW-13 ACC cells viability, CellTiter-Glo, 48 h; activity (max response): hits give low values; note: nearly all actives have a fitted effect of over 65% in size
How it was run: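 IC50 and maximal-response values come from four-parameter logistic fits of titration data. SW-13 cells in serum-free medium received compounds (up to 46 uM final) for 48 h before CellTiter-Glo luminescence.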

Measured: Potency
Potency is the fitted concentration of half-maximal effect.

C[C@@H](Oc1ccc2[nH]nc(C=Cc3cnn(CCO)c3)c2c1)c1c(Cl)cncc1Cl
inconclusive: [1] 8.33 µM [cytotoxic, full curve] | [2] 9.35 µM [cytotoxic, full curve] | [3] 7.43 µM [cytotoxic, full curve] | [4] 29.6 µM [cytotoxic, single point] | [5] 8.33 µM [cytotoxic, full curve] | [6] 6.62 µM [cytotoxic, full curve] | [7] 0.209 µM [cytotoxic, full curve] | [8] 0.187 µM [cytotoxic, full curve]

C=CC(=O)Nc1cccc(Sc2nc(Nc3ccc(N4CCN(C)CC4)cc3)ncc2Cl)c1
inconclusive: [1] 37.2 µM [cytotoxic, single point] | [2] 37.2 µM [cytotoxic, single point] | [3] 23.5 µM [cytotoxic, partial curve] | [4] 37.2 µM [cytotoxic, single point] | [5] 37.2 µM [cytotoxic, single point] | [6] 33.2 µM [cytotoxic, single point] | [9] 29.6 µM [cytotoxic, single point]
active: [7] 23.5 µM | [8] 16.6 µM | [10] 3.16 µM

Cc1onc(-c2ccccc2)c1C(=O)N[C@@H]1C(=O)N2[C@@H](C(=O)O)C(C)(C)S[C@@H]12
active: [5] 1.05 µM | [6] 1.32 µM
inconclusive: [1] 5.9 µM [cytotoxic, partial curve] | [2] 5.26 µM [cytotoxic, partial curve] | [3] 0.526 µM [cytotoxic, full curve] | [4] 2.96 µM [cytotoxic, full curve, poor fit] | [9] 11.8 µM [rising, single point]
inactive: [8]

CC(C)Oc1ccc(C(=O)N[C@H](CNC(=O)CN(C)C)Cc2ccc(-c3cn4cccc([C@H](C)O)c4n3)cc2)cc1Cl
inconclusive: [1] 0.833 µM [cytotoxic, full curve] | [2] 1.05 µM [cytotoxic, full curve] | [3] 1.05 µM [cytotoxic, full curve] | [4] 1.66 µM [cytotoxic, full curve] | [5] 1.48 µM [cytotoxic, full curve] | [6] 1.05 µM [cytotoxic, full curve] | [7] 0.833 µM [cytotoxic, full curve] | [9] 1.05 µM [cytotoxic, full curve] | [8] 1.05 µM [cytotoxic, full curve]

C=C1C(=CC=C2CCCC3(C)[C@@H]([C@H](C)C=CC=CC(O)(CC)CC)CC[C@@H]23)C[C@@H](O)C[C@@H]1O (stereo not given in full)
inconclusive: [1] 33.2 µM [cytotoxic, single point] | [2] 23.5 µM [cytotoxic, single point] | [3] 20.9 µM [cytotoxic, partial curve] | [4] 23.5 µM [cytotoxic, single point] | [5] 20.9 µM [cytotoxic, single point] | [6] 26.4 µM [cytotoxic, single point] | [7] 29.6 µM [cytotoxic, single point] | [9] 26.4 µM [cytotoxic, single point]

No new results follow: 2 of the compounds above.
C=CC(=O)Nc1cccc(Sc2nc(Nc3ccc(N4CCN(C)CC4)cc3)ncc2Cl)c1
inconclusive: [1] 37.2 µM [cytotoxic, single point] | [2] 37.2 µM [cytotoxic, single point] | [3] 23.5 µM [cytotoxic, partial curve] | [4] 37.2 µM [cytotoxic, single point] | [5] 37.2 µM [cytotoxic, single point] | [6] 33.2 µM [cytotoxic, single point] | [9] 29.6 µM [cytotoxic, single point]
active: [7] 23.5 µM | [8] 16.6 µM | [10] 3.16 µM

Cc1onc(-c2ccccc2)c1C(=O)N[C@@H]1C(=O)N2[C@@H](C(=O)O)C(C)(C)S[C@@H]12
active: [5] 1.05 µM | [6] 1.32 µM
inconclusive: [1] 5.9 µM [cytotoxic, partial curve] | [2] 5.26 µM [cytotoxic, partial curve] | [3] 0.526 µM [cytotoxic, full curve] | [4] 2.96 µM [cytotoxic, full curve, poor fit] | [9] 11.8 µM [rising, single point]
inactive: [8]

Following part.

Nc1nc(F)nc2c1ncn2[C@@H]1O[C@H](COP(=O)(O)O)[C@@H](O)[C@@H]1O
active: [11] 14.8 µM
inconclusive: [10] 22.4 µM [cytotoxic, partial curve, poor fit]

CNC1CCC(N(Cc2cccc(-c3ccncc3)c2)C(=O)c2sc3c(F)ccc(F)c3c2Cl)CC1 (stereo not given)
inconclusive: [2] 37.2 µM [cytotoxic, single point] | [3] 23.5 µM [cytotoxic, single point] | [4] 26.4 µM [cytotoxic, single point] | [5] 23.5 µM [cytotoxic, single point] | [6] 20.9 µM [cytotoxic, partial curve, poor fit] | [7] 18.7 µM [cytotoxic, partial curve] | [9] 18.7 µM [cytotoxic, partial curve, poor fit] | [8] 6.62 µM [cytotoxic, partial curve, poor fit]
inactive: [1]
active: [12] 10 µM
